Our source for the cell number change and AC50 values is PubChem BioAssay AID2685 (National Center for Advancing Translational Sciences (NCATS), 2010).

The structures appear in SMILES notation. Some of the results follow. These are further read-outs of the screen, such as a control signal, another cell line or another target. No call is given for them. Compounds called inactive in the main read-out are mostly missing here. Potencies come from curve fits of mixed quality, noted in brackets.

This test can be described thus: qHTS Assay for Lipid Storage Modulators in Drosophila S3 Cells.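 As to cell number change: cells counted by Cell Tracker Red CMTPX staining in the red channel.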 Particulars: BODIPY lipid droplet fluorescence, 18-24 h; for cell number change: measured here: cell count max response, cells fed with added oleic acid. Put shortly: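 Laser-scanning cytometry quantifies lipid droplet accumulation (500–530 nm total intensity; droplet/cell object ratio) in oleic acid-fed (400 uM added) Drosophila S3 cells treated with a concentration series. 20 uM Triacsin C defined 100% inhibition.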

Setting [1] is: measured here: lipid fluorescence (Fed channel) AC50, cells fed with added oleic acid.
Setting [2] is: measured here: cell number channel AC50, cells fed with added oleic acid.

As usually defined, the AC50 is the midpoint of the concentration-response curve, whichever way the signal moves. The low end stands for activity at low concentration, the high end for activity only at high concentration. With `CNC(=O)c1ccc(Nc2nc(-c3ccccc3)nc3ccccc23)cc1`, the cell number change was determined as 16.2%. Further, the AC50 under setting [1] is 29.1 µM [falling, single point].
With `COc1ccc(S(=O)(=O)N2CCN(C(=O)c3cc(C)oc3C)CC2)cc1OC`, the cell number change was -9.35%. For the same molecule, under setting [2], the AC50 was 0.184 µM [falling, full curve, poor fit].
With `O=C(c1ccc2ccccc2c1)N1CCN(Cc2ccccc2)CC1`, the half-maximal activity concentration (AC50) under setting [2] was 6.51 µM [rising, partial curve, poor fit].
Take `COC(=O)c1sccc1NC(=O)c1c(Cl)cnn1C`: the cell number change is 14.7%. The AC50 under setting [1] was 1.84 µM [rising, full curve].
Consider `CCOC(=O)c1ccc(NC(=O)c2c(O)c3ccccc3n(C)c2=O)cc1`, for which the cell number change was found to be 0.884%. The AC50 under setting [1] was 0.92 µM [rising, full curve].
For the molecule `CC(CN1CCCC1)OC(=O)c1ccc(Cl)cc1Cl` (stereo unspecified), the cell number change was -1.59%.
Regarding `CCOc1cccc(C2/C(=C(/O)c3ccc4c(c3)CC(C)O4)C(=O)C(=O)N2CCN2CCOCC2)c1` (stereo unspecified), the cell number change was determined as 28.1%. The half-maximal activity concentration (AC50) under setting [1] was 25.9 µM [rising, single point].
Consider `Cc1ccc(S(=O)(=O)N(C)c2ccc(OCC(=O)OCc3c(C)noc3C)cc2)cc1`, for which the cell number change was -65.7%. Further, under setting [2], the AC50 is 10.3 µM [falling, partial curve]. Besides, the concentration at half-maximal activity (AC50) under setting [1] was 14.6 µM [falling, partial curve].
In the case of `Clc1nc2sccn2c1/C=N/n1cnc2ccccc21`, the cell number change was -14.7%.
For `CCOC(=O)Cn1c(=O)c2c(nc3n2CCCCN3c2ccc(C)cc2)n(C)c1=O`, the cell number change was found to be 19%. Further, under setting [1], the AC50 is 6.51 µM [rising, single point].
On to `Cc1ccc(CC2CC(=O)N(c3ccc(Cl)cn3)C2=O)cc1` (stereo unspecified), for which the cell number change was -8.93%. The concentration at half-maximal activity (AC50) under setting [1] was 0.731 µM [falling, full curve].
Regarding `COC(=O)c1c(NC(=O)CSc2nnnn2C)sc(C)c1C`, the cell number change amounted to 2.31%. Besides, the AC50 under setting [1] is 0.164 µM [rising, full curve, poor fit].
As to `CCn1c(CNC(=O)c2cc(OC)c(OC)c(OC)c2)cc2ccccc21`, the cell number change is -25.5%. Moreover, under setting [1], the AC50 is 29.1 µM [falling, single point].
Consider `Cc1ccc(C(=O)N2CCCc3ccccc32)c(F)c1F`, for which the cell number change is -25.5%.
In the case of `CC1CCCN(CCCNC(=O)c2ccc(CS(=O)(=O)Cc3cccc(Cl)c3)o2)C1` (stereo unspecified), the cell number change was -6.08%. Moreover, the half-maximal activity concentration (AC50) under setting [1] was 29.1 µM [falling, single point].
As to `COc1ccc(C(=O)Nc2ccc(-c3nnn(CC(=O)N4CCN(C(=O)c5ccco5)CC4)n3)cc2)cc1`, the cell number change was determined as 21.6%. Also, the AC50 under setting [2] is 1.84 µM [rising, full curve, poor fit].
For the molecule `COC(=O)C(C#N)c1nc2ccccc2nc1N1CCN(Cc2ccc3c(c2)OCO3)CC1` (stereo unspecified), the cell number change was 15.2%. For the same molecule, the AC50 under setting [2] is 2.59 µM [rising, single point].
On to `CCCNc1c(NS(=O)(=O)c2ccc(Cl)s2)c(=O)oc2ccccc12`, for which the cell number change is -13.7%.
`C/C(=C\C(=O)N1CCc2ccccc21)C(=O)O`: the cell number change is 23.5%.
For the molecule `Cc1ccc2nc(SCC(=O)NCc3ccco3)nc(=O)n2c1`, the cell number change was -27.8%. For the same molecule, the half-maximal activity concentration (AC50) under setting [1] was 32.6 µM [falling, single point].
With `CCC(C)NC(=O)/C(=C/c1ccco1)c1ccccc1` (stereo unspecified), the cell number change was found to be 1.38%. The concentration at half-maximal activity (AC50) under setting [1] is 0.58 µM [falling, single point].
Consider `CCOCC(=O)Nc1nc(-c2ccccc2)c(CC)s1`, for which the cell number change worked out at 37.4%. Under setting [2], the AC50 was 18.4 µM [rising, single point].
`Cc1ccc(C(=O)OCC(=O)NCc2cccs2)s1`: the cell number change was 3%.
For `COc1ccc(C(c2nnnn2CS(=O)(=O)c2ccc(C)cc2)N2CCN(c3ncccn3)CC2)cc1` (stereo unspecified), the cell number change worked out at 21.5%. The AC50 under setting [1] is 23.1 µM [rising, partial curve, poor fit].
For `Cc1cc(NC(=O)CSc2nnnn2-c2ccccc2F)no1`, the cell number change is -30.3%. The AC50 under setting [2] was 0.92 µM [falling, full curve, poor fit].
For `Cc1ccc(Oc2ccc(Cl)cc2N)cc1`, the half-maximal activity concentration (AC50) is, setting by setting: under setting [2], 0.00411 µM [falling, full curve, poor fit]; under setting [1], 0.082 µM [falling, single point].
Take `O=S(=O)(c1cnccc1N1CCN(/N=C/c2ccc(Br)cc2)CC1)N1CCCCC1`: the cell number change came out at 126%. In addition, under setting [2], the half-maximal activity concentration (AC50) is 3.26 µM [rising, partial curve, poor fit]. For the same molecule, under setting [1], the half-maximal activity concentration (AC50) is 0.116 µM [rising, full curve, poor fit].
As to `CN(C)c1ccc(-c2noc(C3CCN(S(=O)(=O)c4cccc(Cl)c4)CC3)n2)cc1`, the cell number change is -12.5%. Moreover, under setting [1], the concentration at half-maximal activity (AC50) was 1.3 µM [rising, full curve].
Take `CN(c1ccccc1)c1nc(N)c([N+](=O)[O-])c(Nc2ccc(F)cc2)n1`: the cell number change was found to be 66.7%. For the same molecule, the half-maximal activity concentration (AC50) under setting [2] is 32.6 µM [rising, single point].
For `CN1CCN(CCC(=O)N/N=C/c2cc([N+](=O)[O-])ccc2O)CC1`, the cell number change amounted to 9.25%.
For `O=c1[nH]cc(N=Cc2cc([N+](=O)[O-])ccc2O)c(=O)[nH]1`, the cell number change was found to be 5.22%. Moreover, the AC50 under setting [1] was 25.9 µM [rising, single point].
For the molecule `CC1CN(CCOCCSc2ccccc2)CC(C)O1` (stereo unspecified), the cell number change is -8.31%. In addition, the concentration at half-maximal activity (AC50) under setting [1] is 0.103 µM [rising, full curve, poor fit].
For `COc1ccc(N(C(C)C(=O)N2CCC(Cc3ccccc3)CC2)S(C)(=O)=O)cc1` (stereo unspecified), the cell number change was -24.3%. Besides, the half-maximal activity concentration (AC50) under setting [2] is 4.11 µM [falling, full curve, poor fit]. For the same molecule, the concentration at half-maximal activity (AC50) under setting [1] is 4.61 µM [falling, full curve, poor fit].
Take `CCCCc1cc(=O)oc2cc(C)cc(OCC(=O)NCc3cccnc3)c12`: the cell number change is -8.02%. Besides, the concentration at half-maximal activity (AC50) under setting [1] is 29.1 µM [falling, single point].
With `O=C(Nc1ccc(Br)c(C(F)(F)F)c1)c1ccc(C(F)(F)F)cc1`, the cell number change is -46.6%.
In the case of `CC(C)(C)c1ccc(C(=O)Nc2cccc(-n3cnnn3)c2)cc1`, the cell number change is -21.2%. Moreover, the half-maximal activity concentration (AC50) under setting [1] is 29.1 µM [falling, single point].
For `CC1CCN(C(c2ccc(N(C)C)cc2)c2nnnn2Cc2ccc(F)cc2)CC1` (stereo unspecified), the cell number change was 2.52%. Also, the AC50 under setting [1] was 0.103 µM [rising, full curve, poor fit].
As for `CCN1C(=NCc2ccco2)N[C@@H](c2cccc(C(F)(F)F)c2)C(C(=O)OC)=C1C`, the cell number change was 9.59%.
As for `COc1cccc(N2CCN(CC(=O)c3c(C)[nH]c4ccccc34)CC2)c1`, the half-maximal activity concentration (AC50) was 1.3 µM [rising, full curve] under setting [2] and 2.06 µM [rising, partial curve] under setting [1].
Turning to `O=C(COc1ccccc1)Nc1cccc(-c2nc3cc4ccccc4cc3[nH]2)c1`, the cell number change came to 13.2%. The AC50 under setting [2] was 6.51 µM [rising, single point]. Also, the AC50 under setting [1] was 6.51 µM [rising, single point].
Consider `COCc1[nH]c(=S)[nH]c(=O)c1C`, for which the cell number change is -55.1%. Besides, under setting [2], the AC50 was 29.1 µM [falling, single point]. Also, under setting [1], the AC50 was 29.1 µM [falling, single point].
On to `COc1ccccc1N(CC(=O)N(c1ccccc1)C(C)C)S(=O)(=O)c1cccs1`, for which the cell number change was 61.3%.
With `Cc1ccc(N=C2C(=O)Nc3ccccc32)cc1`, the cell number change was 37.5%. Also, under setting [2], the AC50 is 0.58 µM [rising, full curve, poor fit].
As for `N/C(CN1CCCC1=O)=N\OC(=O)c1ccccc1Cl`, under setting [1], the AC50 was 5.8 µM [falling, full curve].
In the case of `NS(=O)(=O)c1cccc(NC(=O)CCS(=O)(=O)c2ccc(Cl)cc2)c1`, the cell number change amounted to 10.5%. The AC50 under setting [1] is 0.411 µM [falling, partial curve, poor fit].
On to `CC(C)CN(C(=O)CN1C(=O)NC(c2ccccc2)(c2ccccc2)C1=O)C1CCS(=O)(=O)C1` (stereo unspecified), for which the cell number change is -23.8%. In addition, the AC50 under setting [1] is 14.6 µM [falling, single point].
Take `CCOc1ccc(-c2nc(C#N)c(NCC(C)C)o2)cc1`: the cell number change is -18.4%.
As for `CCOC(=O)c1sc(NC(=O)CN2CC(C)OC(C)C2)nc1C` (stereo unspecified), the cell number change is -4.23%.
On to `CC1CCc2sc(C(=O)NCC(C)(C)N3CCOCC3)cc2C1` (stereo unspecified), for which the cell number change stood at 22.5%.
Turning to `N#CCCN(C(=O)COC(=O)C1=COCCO1)c1ccc(F)cc1`, the cell number change is -22.8%. Also, the AC50 under setting [1] is 0.146 µM [falling, full curve].
With `CN(C)CCCNc1oc(-c2ccccc2)nc1C#N`, the AC50 under setting [1] is 0.731 µM [rising, single point].
Regarding `COc1ccc(OC)c(NC(=O)CSc2nc(=O)n(Cc3ccccn3)c3c2CCC3)c1`, the cell number change was 13.3%. Besides, under setting [2], the AC50 is 2.31 µM [rising, partial curve]. Besides, under setting [1], the AC50 is 0.82 µM [rising, full curve].
Take `CN(C)c1ccc(-c2ccccc2)nn1`: the cell number change was determined as 94.3%. For the same molecule, under setting [2], the AC50 was 6.51 µM [falling, single point]. For the same molecule, the AC50 under setting [1] is 6.51 µM [rising, single point].
Consider `O=C(CSc1nc2[nH]c(=O)cc(O)c2s1)Nc1cc(Cl)cc(Cl)c1`, for which the cell number change was 10.4%. The concentration at half-maximal activity (AC50) under setting [1] is 6.51 µM [rising, single point].
As for `O=C(CCn1c(=S)oc2ccccc21)NC1CCCCC1`, the cell number change worked out at 14.1%. The AC50 under setting [1] is 0.259 µM [falling, full curve, poor fit].
Take `CCOc1cccc(NC(=O)C2CC(=O)N(C)C(=Nc3ccccc3)S2)c1` (stereo unspecified): the cell number change is -15%. Besides, the half-maximal activity concentration (AC50) under setting [1] was 6.51 µM [rising, partial curve].
Take `CC(C)CCN1CN(S(=O)(=O)c2cccs2)c2nc3ccccc3nc21`: the cell number change was 10.1%. The AC50 under setting [1] is 4.61 µM [rising, partial curve].
Consider `CCC(Oc1ccccc1)C(=O)N1CCN(S(=O)(=O)c2ccccc2)CC1` (stereo unspecified), for which the cell number change turned out to be 9.21%. The concentration at half-maximal activity (AC50) under setting [1] is 1.64 µM [rising, full curve].
For the molecule `Cc1ccc(S(=O)(=O)C2(C(=O)NC3CCCCC3)CC2)cc1`, the cell number change was -11.4%.
For `CCCn1c(CN2CCN(C(=O)OCC)CC2)nc2cc([N+](=O)[O-])ccc21`, the cell number change is -6.38%. Besides, the concentration at half-maximal activity (AC50) under setting [2] is 0.00517 µM [falling, full curve].
For `CC1CCCC(NC(=O)CCNC(=O)c2ccccc2Cl)C1C` (stereo unspecified), the cell number change was determined as 3%.
Regarding `Cc1ccc(N(C)C(=O)CCNC(=O)Cn2cnc3ccccc3c2=O)cc1C`, the cell number change came to 12.8%. Moreover, the AC50 under setting [1] is 3.26 µM [falling, full curve, poor fit].
On to `O=C(NC(=O)c1csnn1)Nc1ccccc1Cl`, for which the cell number change is -6.15%.
In the case of `CCCCN1C(Nc2ccccc2)=NC[C@@H]1Cc1ccccc1`, the cell number change was 0.328%. Besides, the AC50 under setting [1] was 29.1 µM [falling, single point].
